Test results published in article PMC13415529.
Results are given in words; binding and its absence hold for the method and conditions named. In cells and extracts the contact can be indirect. Binding can be weak; no strength is given.

By UniProt entry, the sequences of proteins in these tests, tags left out. Where a name states a change or a piece, a line headed by the entry shows the natural chain unless it says otherwise.
UniProt Q9H9Q4: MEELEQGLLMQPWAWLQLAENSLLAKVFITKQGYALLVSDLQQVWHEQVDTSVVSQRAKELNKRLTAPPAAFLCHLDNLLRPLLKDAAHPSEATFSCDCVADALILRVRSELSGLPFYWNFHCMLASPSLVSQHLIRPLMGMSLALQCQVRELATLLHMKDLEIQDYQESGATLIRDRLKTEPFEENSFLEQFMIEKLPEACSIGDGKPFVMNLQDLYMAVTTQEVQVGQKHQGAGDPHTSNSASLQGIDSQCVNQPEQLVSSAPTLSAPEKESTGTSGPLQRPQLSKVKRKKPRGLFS

Target: GST-UFM1 (human (by the printed UniProt accession)) (UniProt P61960)
Assay: pull-down; 3–5 µg GST-UFM1 on glutathione magnetic beads, overnight at 4 °C with extract of transfected HEK293T cells; washes NETN and PBS; immunoblot; only the target purified

Substance: XLF mutated in residues 199–207 (from UniProt Q9H9Q4)
- binding: binds
